Measurements: PMC6726247
Results are given in words; binding and its absence hold for the method and conditions named. In cells and extracts the contact can be indirect. A yes stands for co-enrichment or nearness to the bait. Other partners may have been found. One block for each binder: values may come before it.

By UniProt entry, the sequences of proteins in these tests, tags left out.
UniProt Q9CWH6: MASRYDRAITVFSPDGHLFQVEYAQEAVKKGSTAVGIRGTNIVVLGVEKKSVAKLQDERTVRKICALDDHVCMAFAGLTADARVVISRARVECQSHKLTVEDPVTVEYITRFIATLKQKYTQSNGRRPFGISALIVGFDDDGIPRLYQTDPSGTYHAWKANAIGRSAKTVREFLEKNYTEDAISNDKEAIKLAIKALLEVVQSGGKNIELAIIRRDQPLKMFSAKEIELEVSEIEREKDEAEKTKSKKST

Molecular target: PSMA8 (testis-specific proteasomal subunit α4s), endogenous (mouse (endogenous in testis)) (UniProt Q9CWH6)
Experiment: affinity purification with mass spectrometry; anti-PSMA8 antibodies R1 and R2 (detect PSMA7/8) bound to sepharose beads; 20 mg wild-type mouse testis extract in 50mM Tris HCl (pH8), 500mM NaCl, 1mM EDTA, 1% tritonX-100, o/n; buffer lacking ATP and glycerol; eluted in 100 mM glycine pH3

binding: binds
B1: TDRD9 (tudor domain protein) (protein, UniProt Q14BI7 1-1383)
chain: MLRKLTVDQINDWFTIGKTVTNVELLGLPPAFPAEAPREEVQRSEEVPNEDPTAQAQVPVKATAPARPASTSGRSLSQRSSEMEYINKYRQLEEQELDIYGQDQPPSGPGLRSPLAKLSNVACIPETTYKYPDLPINRCKEEVISLIESNSVVIIHGATGSGKSTQLPQYVLDHYTQRSAFCNIVVTQPRKIGASSIARWISKERSWTLGGLVGYQVGLEKIATEDTRLIYMTTGVLLQKIVSAKSLMEFTHIFIDEVHERTEEMDFLLLVVRKLLRTNSRFVKVVLMSATINCKQFADYFAVPVQNKMNPAYVFEVEGKPHAIEEYYLNDLGHIYHSGLPYRLEEPVITKDVYEVAVSLIQMFDDLDMKESGNKTWSGAQFVSERSSVLVFLPGLGEINYMHELLTNMIHKRLQVYPLHSSVTLEEQNNVFLSPVPGYRKIILSTNIAESSVTVPDVKYVIDFCLTRTLVCDEDTNYQSLRLSWASKTSCDQRKGRAGRVSKGYCYRLIPRDFWDSAIPDHVVPEMLRCPLGSTILKVKLLDMGEPRALLATALSPPSLSDIERTILLLKEVGALAVSGQREDENPHDGELTFLGRVLAQLPVSQQLGKLVVLGHVFGCLDECLIIAAALSLKNFFTMPFRQHLDGYRNKVHFSGSSRSDCLALVEAFRAWQACRQRGELRRPKDELDWGRLNYIQIKRIREVAELYEELKNRISQFNMFVGPHHPVLDQEYPYKQRFILQVVLAGAFYPNYFTFGQPDEEMAVRELAGKDPKTTVVLKHIPPYGFLYYKQLQSLFRQCGQVKSIVFDGAKAFVEFSRNPTERFKTLPAVNLAVKMSQLKVSLELSVHAAEEIEGKVQGGSVSKLRNTRVNVDFQKQTVDPMQVSFNTLDRPRTVADLLLTIDVTEVVEVGHFWGYRIDERNAELLKQLTAEINRLELVPLPIHPHPDLVCLAPFTDYNKESYFRAQILYVSGNSAEVFFVDYGNRSHVDLDLLREIPCQFLELPFQALEFKICKMRPSAKSLICGEHWSGGAHGRFAALVGGCPLLVKVFSIVHSVLHVDVYRYSGAQDAVNVRDVLIREGYAELAEESYESKQSYEVLKGFFAKSVDTMPDGSVSSPLKDDEKHLLRILLESFASNRLGAPNCKAVLHGPFNPYELKCHSLTRISKFRCVWIEKESINSVVISDSPADLHQRMLVAASLSVNETGSTMLLRETSLMPHIPGLPALLSMLFAPVMELRVDREGKCYTGVLCGLGWNSATEAPILPEHDIELAFDVRLNVEDIVEINILRAAINKLVCDGPNGSKYLGPERIAQLQENARQKLLGLFCRLKPREKITPQWHEKPYEWNQVDPRLIMEQAEPEGSPGKSTSLYQLHTPVVLSP

binding: binds
B2: MAEL (repressor of transposable elements) (protein, UniProt Q8BVN9 1-434)
chain: MPNRRASRNAYYFFVQEKIPELRRRGLPVARVADAIPYCSADWALLREDEKEKYSEMAREWRAAQGKDSGPSEKQKLVSTPLRRPGMLVPKPSISPPDMSNLSIKSDQALLGGIFYFLNIFSHGELPPHCEQRFLPCEIGCVKYSLQEGIMADFHSFIHPGEIPRGFRFHCQAASDSSHKIPISNFEFGHDQATVLQNLYKFIHPNPGNWPPIYCKSDDRARVNWCLKRMERASEIRQDLELLTVEDLVVGIYQQKFLKEPSKTWVRSLLDVAMWDYSSNTRCKWHEENDILFCALAVCKKIAYCISNSLATLFGIQLTGAHVPLQDYEASNSVTPKMVVLDAGRYQKLRVESPGFCHFNSYNQEQRSNTSTGYYPSGVKISGPHSSVRGRGITRLLESISNSSNNIHRFSSCETSLSPYTPQKDGYKPFSSFS
